# Some of the results follow. Shown are side measurements of this screen, not its main read-out; they come without a call. Most of these compounds were active or inconclusive in the main read-out, so they are no random draw. Potencies come from curve fits of mixed quality, noted in brackets.
# Assay: qHTS Assay for Lipid Storage Modulators in Drosophila S3 Cells;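 on cell number change: cells counted by Cell Tracker Red CMTPX staining in the red channel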
# Settings: BODIPY lipid droplet fluorescence, 18-24 h; for cell number change: measured here: cell count max response, cells fed with added oleic acid
# How it was run: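 Drosophila S3 cells got compounds at several concentrations plus oleic acid (400 uM solution). Laser-scanning cytometry with 488 nm excitation read lipid droplets at 500-530 nm and cells at 575-640 nm. Percent activity was relative to 20 uM Triacsin C.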
# [1] = measured here: cell number channel AC50, cells fed with added oleic acid
# [2] = measured here: lipid fluorescence (Fed channel) AC50, cells fed with added oleic acid
Compound,cell number change [%],AC50 [1],AC50 [2]
Cn1c(SCc2nc3cc(C(=O)O)ccc3c(=O)[nH]2)nnc1C(F)(F)F,-28.3,–,–
CCCCCCC(=O)Nc1nc(C)c(-c2csc(Nc3cc(Cl)ccc3OC)n2)s1,-30.1,"7.31 µM [falling, partial curve]","14.6 µM [rising, partial curve, poor fit]"
CN(C)S(=O)(=O)c1ccc2c(c1)C(=O)c1cc(S(=O)(=O)N(C)C)ccc1CC2,-0.582,–,–
CC(OC(=O)C1CCN(S(=O)(=O)c2ccc(Cl)cc2)CC1)C(=O)N1CCc2ccccc21 (stereo not drawn),53.2,"18.4 µM [rising, single point]","6.51 µM [falling, partial curve, poor fit]"
O=[N+]([O-])c1ccc(N/N=C/c2sc(N3CCOCC3)nc2-c2ccccc2)c(S(=O)(=O)Nc2ccccc2Cl)c1,–,–,"0.291 µM [falling, full curve, poor fit]"
Cc1[nH]nc2c1C1(C(=O)Nc3ccc([N+](=O)[O-])cc31)C(C#N)=C(N)O2 (stereo not drawn),6.62,–,–
O=C(CCn1nc(-c2ccc(Cl)cc2)ccc1=O)N1CCN(c2ccccn2)CC1,–,"0.651 µM [rising, full curve, poor fit]","0.116 µM [rising, full curve, poor fit]"
N#Cc1ccc(OCC(=O)NCC2COc3ccccc3O2)cc1 (stereo not drawn),-12.3,–,–
Cc1nc(NC(=O)c2cc3c(C)nn(-c4ccccc4)c3s2)sc1C(=O)Nc1ccccc1,–,"1.3 µM [rising, full curve]","6.51 µM [rising, single point]"
CCC(C)NCCOCCOc1ccc(Cl)c2ccccc12 (stereo not drawn),-0.193,"6.51 µM [falling, single point]","6.51 µM [falling, single point]"
O=C1C=CC(=C(c2ccc(O)cc2)c2ccc(O)cc2)C=C1,13.5,–,"29.1 µM [falling, single point]"
CCc1ccc2oc(C(=O)N3CCN(c4ccc(OC)cc4)CC3)cc(=O)c2c1,21.6,–,"29.1 µM [rising, single point]"
CC(C)(C)Nc1nc(OCC(F)(F)F)nc(OCC(F)(F)F)n1,–,–,"29.1 µM [falling, single point]"
CC(C)CN(C(=O)C1CC1)c1c(N)n(Cc2ccccc2)c(=O)[nH]c1=O,-10,–,–
O=C1c2ccccc2C(Nc2ccccc2)N1Cc1ccc2c(c1)OCO2 (stereo not drawn),14.9,–,"0.58 µM [rising, single point]"
Nc1nc(SCC(=O)c2cc(F)ccc2F)n[nH]1,–,"5.8 µM [rising, single point]",–
COc1ccc(CNC(=S)Nc2cc(C)ccc2C)cc1,37.4,"0.517 µM [rising, full curve, poor fit]",–
Cc1c(C2(c3c(C)n(C)n(-c4ccccc4)c3=O)C(=O)Nc3ccc(F)cc32)c(=O)n(-c2ccccc2)n1C,7.89,–,"29.1 µM [falling, single point]"
COc1ccc(NC(=O)N2CCCC2C(=O)NCc2ccc(C)cc2)cc1 (stereo not drawn),5.61,"4.11 µM [falling, partial curve]","7.31 µM [falling, partial curve]"
CC(=O)c1cc2c(cc1N(C(=O)c1ccco1)C(C(=O)NC1CCCC1)c1ccccc1F)OCO2 (stereo not drawn),5.46,–,"6.51 µM [rising, partial curve, poor fit]"

Compound,cell number change [%],AC50 [1],AC50 [2]
CCOc1cc(CNCCCN2CCOCC2)ccc1OCC(=O)NC(C)(C)C,-24,–,"0.461 µM [falling, full curve, poor fit]"
COc1ccc(/C=C/C(=O)c2cc(Br)ccc2O)cc1OC,12.6,–,–
COc1ccc(-n2c(SCC(C)=O)nc3sc(C)c(C)c3c2=O)cc1,90.1,"29.1 µM [rising, partial curve, poor fit]",–
COc1cc(Cl)ccc1OCc1cc(C(=O)N2CC[C@@H]3CCCC[C@H]3C2)no1,2.09,–,–
COCCNC(=O)CCC1CCN(Cc2cccc(Oc3ccccc3)c2)CC1,14.3,–,"0.146 µM [falling, partial curve, poor fit]"
COCCn1c(SCC(=O)NC2CCCCC2)nnc1-c1ccncc1,-1.28,–,–
Cc1ncc([N+](=O)[O-])n1CCOC(=O)Nc1ccc([N+](=O)[O-])cc1,-16.8,–,"0.231 µM [falling, partial curve, poor fit]"
Cc1sc(N)nc1-c1ccc(Oc2ccccc2)cc1,-37.8,"14.6 µM [falling, single point]","0.651 µM [falling, full curve]"
CC(C)[C@H](NC(=O)N1CC(=O)Nc2ccccc21)C(=O)N[C@@H](C(=O)O)c1ccccc1,-6.49,–,–
CN(Cc1ccccc1F)c1nc(-c2cccs2)nc2ccccc12,23.3,"0.146 µM [rising, full curve, poor fit]","5.8 µM [rising, partial curve, poor fit]"
CCN1C(=O)[C@@H]2[C@@H](c3ccc(-c4ccc(Cl)c(Cl)c4)cc3)N3CCCC[C@@]3(C(=O)OC)[C@@H]2C1=O,-24,–,"0.82 µM [rising, single point]"
Cc1nc(C)c(-c2csc(NCc3ccccc3)n2)s1,-38,"0.461 µM [falling, full curve, poor fit]","2.06 µM [falling, partial curve]"
CC(=O)N(CCCN1CCOCC1)Cc1ccncc1,-19.5,"0.231 µM [falling, full curve, poor fit]","0.00461 µM [falling, full curve, poor fit]"
COc1nc(NCCc2ccc(OC)c(OC)c2)nc(OC)n1,–,"1.46 µM [rising, partial curve]","23.1 µM [rising, partial curve]"
CCOc1ccc(C(=O)OCC(=O)NC(C)C)cc1,-6.47,–,"0.326 µM [rising, partial curve, poor fit]"
Cc1cc(=O)[nH]c(SCC(=O)Nc2nonc2C)n1,-12.5,"6.51 µM [rising, single point]","0.58 µM [rising, single point]"
COc1cccc(-n2c(SCC(=O)Nc3ccc4c(c3)CCC4)nc3ccccc3c2=O)c1,-20,–,"20.6 µM [falling, single point]"
CCC(=O)Nc1ccc(N2CCCCC2)cc1,-63.3,"1.03 µM [falling, full curve]",–
Cc1ccc(S(=O)(=O)CCC(=O)Nc2sccc2C#N)cc1,–,–,"6.51 µM [falling, single point]"
Cn1cnnc1SCC(=O)Nc1cc(S(=O)(=O)N2CCCCCC2)ccc1Cl,–,–,"0.0058 µM [falling, full curve, poor fit]"

# Record cards, as listed above. Values in the order: cell number change [%] | AC50 [1] | AC50 [2]
# CC(=O)c1cc2c(cc1N(C(=O)c1ccco1)C(C(=O)NC1CCCC1)c1ccccc1F)OCO2 (stereo not drawn) in the list: 5.46 | – | 6.51 µM [rising, partial curve, poor fit]
# CC(C)CN(C(=O)C1CC1)c1c(N)n(Cc2ccccc2)c(=O)[nH]c1=O in the list: -10 | – | –

# Filtered by structure: those above with a tert-butyl group (two)
Compound,cell number change [%],AC50 [1],AC50 [2]
CC(C)(C)Nc1nc(OCC(F)(F)F)nc(OCC(F)(F)F)n1,–,–,"29.1 µM [falling, single point]"
CCOc1cc(CNCCCN2CCOCC2)ccc1OCC(=O)NC(C)(C)C,-24,–,"0.461 µM [falling, full curve, poor fit]"

# Continuation.

Compound,cell number change [%],AC50 [1],AC50 [2]
CC(Oc1cccc(Cl)c1)C(=O)Nc1cc(S(=O)(=O)N2CCOCC2)ccc1N1CCCCC1 (stereo not drawn),173,–,–
CC(C)CC(c1nnnn1C(C)C)N1CCN(c2ccccc2)CC1 (stereo not drawn),14.5,–,"7.31 µM [rising, single point]"
COc1ccccc1NS(=O)(=O)c1cccc(C(=O)NNC(=O)c2ccc(NC(C)=O)cc2)c1,-3.2,–,–
Cn1c(N2CCOCC2)c(/C=N/OC(=O)c2ccc(F)cc2)c2ccccc21,83.7,–,–
Cc1ccccc1-c1nnn(Cc2ccc(F)cc2Cl)n1,19.6,–,–
CCn1c(=O)cc(SCC(=O)N2CCN(C3CCCCC3)CC2)c2ccccc21,112,–,"2.91 µM [rising, partial curve]"
NC(=O)c1cnn2c(C(F)(F)F)cc(-c3ccccc3)nc12,-6.12,–,"0.651 µM [rising, partial curve, poor fit]"
Cc1ccc(CCNS(=O)(=O)c2ccc3c(c2)NC(=O)CCS3)cc1,9.54,–,"29.1 µM [rising, single point]"
CCSc1ccccc1C(=O)n1nnc2ccccc21,8.57,"3.66 µM [falling, partial curve, poor fit]","0.731 µM [falling, full curve]"
CN(C(=O)COC(=O)c1ccc(Cl)nc1)C1CCS(=O)(=O)C1 (stereo not drawn),-15.6,"0.326 µM [falling, full curve, poor fit]","29.1 µM [falling, single point]"
CCOC(=O)CSc1nnc(-c2nnc(SCC(=O)OCC)n2CC)n1CC,1.48,–,"5.8 µM [falling, partial curve]"
C=CCNC(=S)N1CCN(S(=O)(=O)c2ccc(C)cc2)CC1,10.2,–,"0.651 µM [falling, single point]"
COc1ccc(NC(=S)Nc2ccccc2)c(OC)c1,58.1,"29.1 µM [rising, single point]","0.651 µM [rising, single point]"
CC1CC1C(=O)OCC(=O)Nc1cccc(F)c1 (stereo not drawn),25,–,"6.51 µM [falling, single point]"
NC(=O)CSc1nnc(COc2ccccc2)n1C1CCCCC1,4.74,–,"14.6 µM [falling, partial curve, poor fit]"
CC(C)OCCCNC(=O)CCSc1ccc(Cl)cc1,13,–,"14.6 µM [falling, partial curve]"
O=C(Nc1ccc2c(c1)OCCO2)c1cc(-n2cnnc2)ccc1Cl,12.2,–,"16.4 µM [rising, single point]"
Cn1c(=O)c2c(ncn2CC(=O)Nc2cccc(S(=O)(=O)Nc3ccccc3F)c2)n(C)c1=O,-4.92,–,"2.31 µM [falling, single point]"
CC(=O)NC1=C(NC2CCS(=O)(=O)C2)C(=O)c2ccccc2C1=O (stereo not drawn),-72.2,"13 µM [falling, partial curve]","8.2 µM [falling, partial curve]"

# Reference: PubChem BioAssay AID2685 (National Center for Advancing Translational Sciences (NCATS), 2010)
